Test results from patent publication US12171801B2, “Compositions and related methods for controlling vector-borne diseases” (priority 2017, dated 2024).
“Also recorded” adds a separate entry of the source. For at least one compound, name, drawing or mass did not settle the structure.

Tests used:
Buchnera [1] = conditions: rifampicin 1 to 50 μg/mL in artificial diet
aphids = conditions: rifampicin 1 to 50 μg/mL in artificial diet
Buchnera [2] = assay: Buchnera/aphid DNA copy number by qPCR; format: in vivo, Acyrthosiphon pisum; conditions: microinjection of 20 nl, LSR-1
[3] = tested on: Acyrthosiphon pisum aphids; assay: Aphid fecundity; format: in vivo; conditions: 0.25%, through plants
Method: (§1) In addition, the developmental stage (1st, 2nd, 3rd, 4th, 5th instar) was determined daily throughout the experiment. Once an aphid reached the 4th instar stage, they were given their own artificial feeding system in a deep petri dish so that fecundity could be monitored once they reached adulthood.
(§2) For adult aphids, new nymphs were counted daily and then discarded. At the end of the experiments, fecundity was determined as the mean number of offspring produced daily once the aphid reached adulthood. Pictures of aphids were taken throughout the experiment to evaluate size differences between treatment groups.
as §1, with “5th, and 5 R (5th that has reproduced)” for “5th”
as §2, with “was measured in two ways: 1) the mean day at which the first offspring for the treatment group was” for “was”, “and 2)” for “as”
as §1

[4] = tested on: Acyrthosiphon pisum aphids; assay: Aphid developmental stage monitoring; format: in vivo; conditions: 0.05%, 0.25% and 0.5% in artificial diet without essential amino acids, through plants
Method: as §1
(§3) Each treatment group received approximately the same number of individuals from each of the collection plant. For each treatment, 20 aphids were placed onto each leaf. Aphids were monitored daily for survival and dead aphids were removed when they were discovered. In addition, the developmental stage (1st, 2nd, 3rd, 4th, 5th instar, and 5 R, representing a reproducing 5th instar) was determined daily throughout the experiment. […]
(§4) Aphids LSR-1 (which harbor only Buchnera), Acyrthosiphon pisum were grown on fava bean plants (Vroma vicia faba from Johnny's Selected Seeds) in a climate-controlled incubator (16 h light/8 h dark photoperiod; 60±5% RH; 25±2° C.). […] Aphids were monitored daily for survival and dead aphids were removed from the deep petri dish when they were discovered. In addition, the developmental stage (1st, 2nd, 3rd, 4th, 5th and 5 R (5th that has reproduced) instar) was determined daily throughout the experiment.
In addition, the developmental stage (1st 2nd, 3rd, 4th, 5th and 5 R (5th that has reproduced) instar) was determined daily throughout the experiment. […]

[5] = tested on: Acyrthosiphon pisum aphids; assay: Aphid survival monitoring; format: in vivo; conditions: for aphid survival: through plants
[6] = tested on: Acyrthosiphon pisum aphids; assay: Aphid size (body area) from images; format: in vivo; conditions: gossypol in artificial diet through plants
Method: as §2, §3
For adult aphids, new nymphs were counted daily and then discarded. At the end of the experiments, fecundity was measured in two ways: 1) the mean day at which the first offspring for the treatment group was determined and 2) the mean number of offspring produced daily once the aphid reached adulthood. […]
as §4, with “In addition, the developmental stage (1st, 2nd, 3rd, 4th, 5th and 5 R (5th that has reproduced) instar) was determined daily throughout the experiment.” left out

Structure (SMILES)	Buchnera specific genes (PCR) (Buchnera [1])	survival rate of aphids (aphids)	Buchnera/aphid DNA copies versus control (Buchnera [2])	aphid reproduction [3]	mean day at which aphids began producing offspring [3]	mean number of offspring produced [3]	aphid development [4]	aphid survival, dose dependence ([5]; 0.05%, 0.25%, 0.5%)	aphid survival ([5]; 0.25%)	aphid survival ([5]; 0.5%)	aphid size (area) [6]
CO[C@H]1/C=C/O[C@@]2(C)Oc3c(C)c(O)c4c(O)c(c(/C=N/N5CCN(C)CC5)c(O)c4c3C2=O)NC(=O)/C(C)=C\C=C\[C@H](C)[C@H](O)[C@@H](C)[C@@H](O)[C@@H](C)[C@H](OC(C)=O)[C@@H]1C [rifampicin]	reduction of Buchnera specific genes	decreased compared to the control									
Cc1cc2c(C(C)C)c(O)c(O)c(C=O)c2c(O)c1-c1c(C)cc2c(C(C)C)c(O)c(O)c(C=O)c2c1O [gossypol, gossypol acetic acid]			decreased Buchnera levels; also recorded: drastic reduction	decreased fecundity; also recorded: reduction to reach adulthood and produce offspring	delayed production of offspring	decreased number of offspring produced	delayed aphid development	dose-dependent decrease in survival	lower survival rates	lower survival rates	affected
